Results deposited as PubChem BioAssay AID1259254 (NCATS, 2017)
This is one part, drawn at random, of about 59,000 reagents. About 1,550 of them (2.6%) were called active. 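G2 share is only a proxy for re-replication; each gene was hit by three separate siRNAs, and active genes were retested.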 Entries without a mark were called inactive. Reagents against one gene are numbered here. Further read-outs or replicates are left out here. The record does not give: the amount of reagent.

Assay: 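Gene knock-downs that lead to re-replication, shown by excess G2 DNA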 (primary screen)
Cell system: human HCT116 colorectal cancer cells
Knock-down reagent: single siRNA against human genes
Timing: 3 days
Read-out: 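Nuclei stained with Hoechst and imaged; cell-cycle phase assigned by DNA content; G2 share scaled per plate, non-targeting siRNA 0%, GMNN siRNA 100%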
Reading the numbers: G2 robust z-score: higher = more G2 cells, more excess DNA replication
Rule for the call: 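Active siRNAs have a G2 robust z of 5 or more median absolute deviations over the median, which in these data means about 38% or higher of GMNN control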

With NIPSNAP3B (nipsnap homolog 3B) #1, what does the deposit list?
G2 robust z-score: -0.132

What did the screen give for NIPSNAP3B (nipsnap homolog 3B) #2?
G2 robust z-score: 0.367

For NIPSNAP3B (nipsnap homolog 3B) #3, what does the deposit list?
G2 robust z-score: -0.289

With ECM1 (extracellular matrix protein 1) #1, how do the results read?
G2 robust z-score: 1.29

How did the screen score ECM1 (extracellular matrix protein 1) #2?
G2 robust z-score: -0.285

What did the screen give for ECM1 (extracellular matrix protein 1) #3?
G2 robust z-score: -0.248

What did the screen give for ACAD10 (acyl-CoA dehydrogenase family member 10) #1?
G2 robust z-score: 1.04

For ACAD10 (acyl-CoA dehydrogenase family member 10) #2, what was measured?
G2 robust z-score: -0.696

What is on record for ACAD10 (acyl-CoA dehydrogenase family member 10) #3?
G2 robust z-score: -0.485

With PLEKHO1 (pleckstrin homology domain containing O1) #1, what was measured?
G2 robust z-score: 0.738

With PLEKHO1 (pleckstrin homology domain containing O1) #2, how do the results read?
G2 robust z-score: -0.978

Which result is listed for PLEKHO1 (pleckstrin homology domain containing O1) #3?
G2 robust z-score: 1.74

Look-ups from the entries so far:
ACAD10 (acyl-CoA dehydrogenase family member 10) #3, G2 robust z-score: -0.485
ECM1 (extracellular matrix protein 1) #3, G2 robust z-score = -0.248

Further reagents follow.
How did the screen score MSH2-OT1 (MSH2 overlapping transcript 1) #1?
G2 robust z-score: 2.04

For MSH2-OT1 (MSH2 overlapping transcript 1) #2, what was measured?
G2 robust z-score: 0.0637

Which result is listed for MSH2-OT1 (MSH2 overlapping transcript 1) #3?
G2 robust z-score: -0.159

For EZR (ezrin) #1, how do the results read?
G2 robust z-score: -0.628

With EZR (ezrin) #2, what was measured?
G2 robust z-score: 0.294

With EZR (ezrin) #3, what does the deposit list?
G2 robust z-score: -0.398

How did the screen score SDHD (succinate dehydrogenase complex subunit D) #1?
G2 robust z-score: -0.609

How did the screen score SDHD (succinate dehydrogenase complex subunit D) #2?
G2 robust z-score: 3.25

For SDHD (succinate dehydrogenase complex subunit D) #3, what does the deposit list?
G2 robust z-score: 2.01

For ZNF239 (zinc finger protein 239) #1, what was measured?
G2 robust z-score: -0.352

Which result is listed for ZNF239 (zinc finger protein 239) #2?
G2 robust z-score: -0.414

With ZNF239 (zinc finger protein 239) #3, how do the results read?
G2 robust z-score: -0.0519
